Assay results: publication PMC5529015

By UniProt entry, the sequences of proteins in these tests, tags left out.
UniProt P60879: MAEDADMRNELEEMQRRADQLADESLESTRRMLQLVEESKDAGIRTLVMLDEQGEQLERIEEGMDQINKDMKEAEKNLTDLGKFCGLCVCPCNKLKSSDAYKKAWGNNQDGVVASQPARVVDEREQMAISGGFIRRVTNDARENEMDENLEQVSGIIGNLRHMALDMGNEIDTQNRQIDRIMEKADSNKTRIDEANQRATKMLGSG
UniProt P46096: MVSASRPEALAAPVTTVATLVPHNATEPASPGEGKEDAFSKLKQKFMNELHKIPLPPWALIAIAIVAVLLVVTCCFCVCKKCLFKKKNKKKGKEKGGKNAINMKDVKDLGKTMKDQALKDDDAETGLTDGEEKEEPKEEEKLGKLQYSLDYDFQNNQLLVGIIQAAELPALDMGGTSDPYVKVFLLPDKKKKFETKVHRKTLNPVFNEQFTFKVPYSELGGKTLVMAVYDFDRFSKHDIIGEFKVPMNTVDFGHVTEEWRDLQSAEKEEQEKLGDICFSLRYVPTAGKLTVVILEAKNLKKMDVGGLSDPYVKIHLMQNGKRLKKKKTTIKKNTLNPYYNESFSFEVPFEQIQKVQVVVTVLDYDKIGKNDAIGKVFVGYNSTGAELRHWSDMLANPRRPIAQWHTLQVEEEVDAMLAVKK
UniProt P33173: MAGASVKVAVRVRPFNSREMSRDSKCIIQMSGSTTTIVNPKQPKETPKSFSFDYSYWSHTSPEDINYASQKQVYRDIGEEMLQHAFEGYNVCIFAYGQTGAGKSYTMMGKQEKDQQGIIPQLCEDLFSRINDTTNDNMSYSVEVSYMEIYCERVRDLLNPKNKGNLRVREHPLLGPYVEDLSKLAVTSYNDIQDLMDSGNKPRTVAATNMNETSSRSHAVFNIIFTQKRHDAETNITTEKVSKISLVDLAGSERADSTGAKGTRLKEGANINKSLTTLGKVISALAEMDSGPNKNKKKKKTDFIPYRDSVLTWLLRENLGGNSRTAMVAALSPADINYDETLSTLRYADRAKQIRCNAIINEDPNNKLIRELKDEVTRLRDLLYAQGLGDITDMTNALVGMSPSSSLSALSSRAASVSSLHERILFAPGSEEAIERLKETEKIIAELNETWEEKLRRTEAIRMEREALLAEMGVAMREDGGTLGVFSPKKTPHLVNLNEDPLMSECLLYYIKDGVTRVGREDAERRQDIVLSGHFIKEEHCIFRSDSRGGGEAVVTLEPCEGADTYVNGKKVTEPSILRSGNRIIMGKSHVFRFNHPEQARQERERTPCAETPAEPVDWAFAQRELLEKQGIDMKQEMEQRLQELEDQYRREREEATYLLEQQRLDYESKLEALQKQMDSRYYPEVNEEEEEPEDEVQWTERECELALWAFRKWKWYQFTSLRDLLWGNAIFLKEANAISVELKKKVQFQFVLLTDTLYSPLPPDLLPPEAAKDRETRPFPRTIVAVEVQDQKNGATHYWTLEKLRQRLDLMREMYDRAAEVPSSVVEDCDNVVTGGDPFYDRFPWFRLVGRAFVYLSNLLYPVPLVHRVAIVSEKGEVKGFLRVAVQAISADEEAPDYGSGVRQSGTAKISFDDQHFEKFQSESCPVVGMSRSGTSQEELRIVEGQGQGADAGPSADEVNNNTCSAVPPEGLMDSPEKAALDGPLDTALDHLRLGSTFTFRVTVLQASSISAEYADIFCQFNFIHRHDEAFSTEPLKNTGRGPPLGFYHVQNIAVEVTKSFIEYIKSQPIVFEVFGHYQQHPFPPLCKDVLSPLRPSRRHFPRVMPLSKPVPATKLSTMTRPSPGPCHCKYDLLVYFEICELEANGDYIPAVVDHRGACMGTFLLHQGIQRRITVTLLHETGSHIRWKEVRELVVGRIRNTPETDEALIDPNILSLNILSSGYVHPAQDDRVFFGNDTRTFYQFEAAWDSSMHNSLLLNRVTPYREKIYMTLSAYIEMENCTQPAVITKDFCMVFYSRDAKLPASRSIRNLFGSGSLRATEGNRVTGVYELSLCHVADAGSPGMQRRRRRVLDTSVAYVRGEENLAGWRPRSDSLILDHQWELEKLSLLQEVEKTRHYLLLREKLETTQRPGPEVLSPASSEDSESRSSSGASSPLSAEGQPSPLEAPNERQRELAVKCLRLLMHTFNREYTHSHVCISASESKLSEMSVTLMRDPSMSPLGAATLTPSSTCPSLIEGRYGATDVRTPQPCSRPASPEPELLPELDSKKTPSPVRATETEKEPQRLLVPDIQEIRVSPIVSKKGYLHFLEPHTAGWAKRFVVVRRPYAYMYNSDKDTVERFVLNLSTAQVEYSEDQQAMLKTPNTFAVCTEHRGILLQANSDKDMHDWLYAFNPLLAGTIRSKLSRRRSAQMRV
UniProt P61264: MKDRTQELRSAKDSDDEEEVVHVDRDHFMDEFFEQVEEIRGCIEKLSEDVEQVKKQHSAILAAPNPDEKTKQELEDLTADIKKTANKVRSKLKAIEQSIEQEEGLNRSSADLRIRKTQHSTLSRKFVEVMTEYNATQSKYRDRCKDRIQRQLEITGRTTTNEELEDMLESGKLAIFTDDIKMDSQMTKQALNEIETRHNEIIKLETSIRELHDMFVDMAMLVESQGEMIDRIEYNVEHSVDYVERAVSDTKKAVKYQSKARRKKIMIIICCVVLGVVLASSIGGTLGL

B1: tomosyn-2 (protein, UniProt Q5DQR4-1 1-1185)
chain: MKKFNFRKVLDGLTASSPGSGSSSGSNSGGAGSGSVHPGGTAGLPREEIQESLTSDYFQICKTVRHGFPYQPTALAFDPVQKILAIGTRTGAIRILGRPGVDCYCQHESGAAVLQLQFLINEGALVSASSDDTLHLWNLRQKRPAILHSLKFNRERITYCHLPFQSKWLYVGTERGNTHIVNIESFILSGYVIMWNKAIELSTKTHPGPVVHLSDSPRDEGKLLIGYENGTVVFWDLKSKRAELRVYYDEAIHSIDWHHEGKQFMCSHSDGSLTLWNLKSPSRPFQTTVPHGKSQREGRKSESCKPILKVEYKTCRNSEPFIIFSGGLSYDKACRRPSLTIMHGKAITVLEMDHPIVEFLTLCETPYPNEFQEPYAVAVLLEKDLIVVDLTQTNFPIFENPYPMDIHESPVTCTAYFADCPPDLILVLYSIGVKHKKQGYSNKEWPVSGGAWNLGAQTYPEIIITGHADGTIKFWDASAMTLQMLYKLKTSKVFEKQKAGEGKQTCELVEEDPFAVQMIYWCPESRIFCVSGVSAYVIIYKFSRHEVTTEIVSLEVRLQCDVEDIITPEPETSPPFPDLSSQLPPSRSLSGSTNTVSSEGVTKDSIPCLSVKTRPVRMPPGYQADLVIQLVWVDGEPPQQITSLSISSAYGIVAFGNCTGLVVVDFIQKTVLLSMGTIDLYRSSDLYQRQPRSPRKNRQFIADNFCMRGLSNFYPDLTKRIRTSYQSLTELNDSPVPLELERCKSPTSDHVNGHCTSPTSQSCSSGKRLSSADVSKVNRWGPGRPPFRKAQSAACMEISLPVTTEETRENSYNRSRSSSISSIDKDSKEAITALYFMESFARKNDSTVSPCLFVGTSLGMVVLISLNLPSSDEQRFTEPVVVLPSGTFLSLKGAVLTFSCMDRTGSLMQPPYEVWRDPNNTDENEKTWKRKLVMNYSSSSQEMGDHQYTIICSEKQAKVFSLPSQTCLYVHNITETSFILQADVVVMCNSACLACFCANGHIMIMSLPSLRPMLDVNYLPLTDMRIARTFCFTNEGQALYLVSPTEIQRLTYSQEMCDNIQDMLGDLFTPIETPEAQNRGFLKGLFGGSGQTFDREELFGEASAGKASRSLAQHIPGPGSIEGMKGAAGGVMGELTRARIALDERGQRLGELEEKTAGMMTSAEAFSKHAHELMLKYKDKKWYQF
B2: tomosyn-1 (protein, UniProt Q8K400 1-1152)
chain: MRKFNIRKVLDGLTAGSSSASQQQQQQQHPPGNREPEIQETLQSEHFQLCKTVRHGFPYQPSALAFDPVQKILAVGTQTGALRLFGRPGVECYCQHDSGAAVIQLQFLINEGALVSALADDTLHLWNLRQKRPAVLHSLKFCRERVTFCHLPFQSKWLYVGTERGNIHIVNVESFTLSGYVIMWNKAIELSSKAHPGPVVHISDNPMDEGKLLIGFESGTVVLWDLKSKKADYRYTYDEAIHSVAWHHEGKQFICSHSDGTLTIWNVRSPAKPVQTITPHGKQLKDGKKPEPCKPILKVELKTTRSGEPFIILSGGLSYDTVGRRPCLTVMHGKSTAVLEMDYSIVDFLTLCETPYPNDFQEPYAVVVLLEKDLVLIDLAQNGYPIFENPYPLSIHESPVTCCEYFADCPVDLIPALYSVGARQKRQGYSKKEWPINGGNWGLGAQSYPEIIITGHADGSVKFWDASAITLQVLYKLKTSKVFEKSRNKDDRQNTDIVDEDPYAIQIISWCPESRMLCIAGVSAHVIIYRFSKQEVLTEVIPMLEVRLLYEINDVDTPEGEQPPPLSTPVGSSNPQPIPPQSHPSTSSSSSDGLRDNVPCLKVKNSPLKQSPGYQTELVIQLVWVGGEPPQQITSLALNSSYGLVVFGNCNGIAMVDYLQKAVLLNLSTIELYGSNDPYRREPRSPRKSRQPSGAGLCDITEGTVVPEDRCKSPTSGSSSPHNSDDEQKVNNFIEKVKTQSRKFSKMVANDLAKMSRKLSLPTDLKPDLDVKDNSFSRSRSSSVTSIDKESRETISALHFCETLTRKADSSPSPCLWVGTTVGTAFVITLNLPPGPEQRLLQPVIVSPSGTILRLKGAILRMAFLDATGCLMSPAYEPWKEHNVAEEKDEKEKLKKRRPVSVSPSSSQEISENQYAVICSEKQAKVMSLPTQSCAYKQNITETSFVLRGDIVALSNSVCLACFCANGHIMTFSLPSLRPLLDVYYLPLTNMRIARTFCFANNGQALYLVSPTEIQRLTYSQETCENLQEMLGELFTPVETPEAPNRGFFKGLFGGGAQSLDREELFGESSSGKASRSLAQHIPGPGGIEGVKGAASGVVGELARARLALDERGQKLSDLEERTAAMMSSADSFSKHAHEMMLKYKDKKWYQF

Assays:
Test in all cases: affinity purification with mass spectrometry; IP with 10 ug antibody to the bait from 5 mg mouse hippocampal P2 + microsome fraction extracted with Triton X-100, 150 mM NaCl, 50 mM HEPES pH 7.4; overnight, Protein A/G PLUS-Agarose 1 h at 4 C, four washes with 0.1% Triton X-100 buffer; SDS-PAGE, in-gel digestion, LC-MS-MS, label-free iBAQ
[1] = target: T1, tomosyn-2 (mouse (endogenous in hippocampal P2 + microsome fraction)) (UniProt Q5DQR4)
T1 sequence: B1 chain

[2] = target: T2, tomosyn-1 (mouse (endogenous in hippocampal P2 + microsome fraction)) (UniProt Q8K400)
T2 sequence: B2 chain

[3] = target: SNAP25 (mouse (endogenous in hippocampal P2 + microsome fraction)) (UniProt P60879)
[4] = target: synaptotagmin-1 (mouse (endogenous in hippocampal P2 + microsome fraction)) (UniProt P46096)

Row | Molecule | binding [1] | binding [2] | binding [3] | binding [4]
1 | KIF1A (from UniProt P33173 1-1695) | no binding | no binding | – | –
2 | Rab3 | – | no binding | – | –
3 | Stx1b (from UniProt P61264 1-288) | – | binds | binds | binds
4 | synaptotagmin-1 (from UniProt P46096 1-421) | – | binds | – | –
5 | type V myosin | no binding | no binding | – | –
6 | B1 | – | binds | binds | binds
7 | B2 | – | – | – | binds

No constants are given. Whether binding was seen depends on the method and setting. Binding seen in cells or lysates may run through a third protein. A yes stands for co-enrichment or nearness to the bait. Other partners may have been found. For some of these results: A no says only that the protein was not detected with the bait.
